Some of the results follow. The data scatter; read single values as rough.
What was measured:
[1] = compound: ClCC(=O)N[C@@H]1CCCc2ccccc12; assay: log2 mean competition ratio of IA-DTB cysteine labelling (DMSO/compound) (log2 ratio); higher = stronger cysteine engagement by compound; conditions: treatment time: 4 h, cell line lysate: HEK293T
Procedure: (§1)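 IA-DTB competitive cysteine chemoproteomics in HEK293T RIPA lysate. Lysates were treated with compound 29 or 30 at 50 or 200 µM for 4 h, then IA-DTB (500 µM, 1 h), trypsin-digested, NeutrAvidin-enriched and analysed by diaPASEF. Competition ratio = intensity DMSO / intensity compound (n=4 treated, n=64 DMSO); binding: mean log2 CR ≥ 1 and p ≤ 0.05 plus QC filters. Target is the cysteine site.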

Protein sequences, listed by entry. Tags and fused reporters are not part of them. Lines headed by an entry give the natural chain unless they say otherwise; changes in a name come on top. Residues count along the entry.
UniProt Q92667: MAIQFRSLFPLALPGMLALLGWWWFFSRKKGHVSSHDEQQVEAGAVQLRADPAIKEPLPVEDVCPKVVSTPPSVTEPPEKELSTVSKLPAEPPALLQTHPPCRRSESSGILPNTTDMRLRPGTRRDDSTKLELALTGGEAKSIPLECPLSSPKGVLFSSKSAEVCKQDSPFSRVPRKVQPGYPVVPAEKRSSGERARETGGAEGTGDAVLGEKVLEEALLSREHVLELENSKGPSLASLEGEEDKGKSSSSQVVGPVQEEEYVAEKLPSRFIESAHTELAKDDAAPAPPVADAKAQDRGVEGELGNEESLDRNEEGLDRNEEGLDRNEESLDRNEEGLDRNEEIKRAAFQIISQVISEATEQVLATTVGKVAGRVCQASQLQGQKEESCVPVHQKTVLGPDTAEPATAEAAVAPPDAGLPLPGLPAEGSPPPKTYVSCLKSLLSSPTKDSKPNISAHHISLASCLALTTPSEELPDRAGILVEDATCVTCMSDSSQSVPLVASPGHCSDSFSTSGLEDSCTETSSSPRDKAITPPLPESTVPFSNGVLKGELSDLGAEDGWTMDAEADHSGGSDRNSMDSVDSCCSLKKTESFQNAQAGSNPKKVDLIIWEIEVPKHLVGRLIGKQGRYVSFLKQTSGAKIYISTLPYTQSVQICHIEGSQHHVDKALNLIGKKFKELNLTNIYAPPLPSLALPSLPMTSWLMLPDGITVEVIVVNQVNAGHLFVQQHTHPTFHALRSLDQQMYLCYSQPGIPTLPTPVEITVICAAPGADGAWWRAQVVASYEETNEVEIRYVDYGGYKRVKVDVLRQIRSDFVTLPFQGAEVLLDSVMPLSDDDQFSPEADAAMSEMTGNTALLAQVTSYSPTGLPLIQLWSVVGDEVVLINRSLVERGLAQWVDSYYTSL
UniProt Q13155: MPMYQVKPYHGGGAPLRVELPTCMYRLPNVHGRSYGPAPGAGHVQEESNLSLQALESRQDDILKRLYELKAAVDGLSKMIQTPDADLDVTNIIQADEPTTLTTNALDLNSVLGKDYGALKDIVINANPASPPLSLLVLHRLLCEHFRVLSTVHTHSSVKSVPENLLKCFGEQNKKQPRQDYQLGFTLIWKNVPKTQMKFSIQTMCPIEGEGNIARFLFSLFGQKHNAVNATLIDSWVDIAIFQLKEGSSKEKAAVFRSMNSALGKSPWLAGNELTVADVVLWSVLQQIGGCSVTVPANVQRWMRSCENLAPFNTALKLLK
UniProt P55265, 386-408: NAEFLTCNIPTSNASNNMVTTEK
UniProt Q9UEY8: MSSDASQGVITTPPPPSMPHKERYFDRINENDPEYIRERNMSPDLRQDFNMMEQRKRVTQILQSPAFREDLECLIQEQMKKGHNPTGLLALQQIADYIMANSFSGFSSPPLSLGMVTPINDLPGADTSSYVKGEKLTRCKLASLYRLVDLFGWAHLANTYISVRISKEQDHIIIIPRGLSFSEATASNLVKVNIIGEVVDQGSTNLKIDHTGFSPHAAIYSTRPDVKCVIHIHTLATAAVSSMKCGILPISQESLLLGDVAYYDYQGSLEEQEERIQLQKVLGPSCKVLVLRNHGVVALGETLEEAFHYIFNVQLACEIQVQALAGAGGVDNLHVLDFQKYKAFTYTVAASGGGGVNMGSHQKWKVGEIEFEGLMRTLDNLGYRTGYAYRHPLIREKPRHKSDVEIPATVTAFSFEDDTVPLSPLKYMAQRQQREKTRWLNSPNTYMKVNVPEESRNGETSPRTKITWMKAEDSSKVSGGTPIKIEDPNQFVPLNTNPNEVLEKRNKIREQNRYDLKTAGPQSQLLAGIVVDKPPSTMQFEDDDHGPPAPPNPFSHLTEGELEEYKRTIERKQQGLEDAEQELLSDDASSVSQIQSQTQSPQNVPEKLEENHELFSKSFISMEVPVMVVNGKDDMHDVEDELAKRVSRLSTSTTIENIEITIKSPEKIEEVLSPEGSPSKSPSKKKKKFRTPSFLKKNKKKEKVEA
UniProt Q96Q42: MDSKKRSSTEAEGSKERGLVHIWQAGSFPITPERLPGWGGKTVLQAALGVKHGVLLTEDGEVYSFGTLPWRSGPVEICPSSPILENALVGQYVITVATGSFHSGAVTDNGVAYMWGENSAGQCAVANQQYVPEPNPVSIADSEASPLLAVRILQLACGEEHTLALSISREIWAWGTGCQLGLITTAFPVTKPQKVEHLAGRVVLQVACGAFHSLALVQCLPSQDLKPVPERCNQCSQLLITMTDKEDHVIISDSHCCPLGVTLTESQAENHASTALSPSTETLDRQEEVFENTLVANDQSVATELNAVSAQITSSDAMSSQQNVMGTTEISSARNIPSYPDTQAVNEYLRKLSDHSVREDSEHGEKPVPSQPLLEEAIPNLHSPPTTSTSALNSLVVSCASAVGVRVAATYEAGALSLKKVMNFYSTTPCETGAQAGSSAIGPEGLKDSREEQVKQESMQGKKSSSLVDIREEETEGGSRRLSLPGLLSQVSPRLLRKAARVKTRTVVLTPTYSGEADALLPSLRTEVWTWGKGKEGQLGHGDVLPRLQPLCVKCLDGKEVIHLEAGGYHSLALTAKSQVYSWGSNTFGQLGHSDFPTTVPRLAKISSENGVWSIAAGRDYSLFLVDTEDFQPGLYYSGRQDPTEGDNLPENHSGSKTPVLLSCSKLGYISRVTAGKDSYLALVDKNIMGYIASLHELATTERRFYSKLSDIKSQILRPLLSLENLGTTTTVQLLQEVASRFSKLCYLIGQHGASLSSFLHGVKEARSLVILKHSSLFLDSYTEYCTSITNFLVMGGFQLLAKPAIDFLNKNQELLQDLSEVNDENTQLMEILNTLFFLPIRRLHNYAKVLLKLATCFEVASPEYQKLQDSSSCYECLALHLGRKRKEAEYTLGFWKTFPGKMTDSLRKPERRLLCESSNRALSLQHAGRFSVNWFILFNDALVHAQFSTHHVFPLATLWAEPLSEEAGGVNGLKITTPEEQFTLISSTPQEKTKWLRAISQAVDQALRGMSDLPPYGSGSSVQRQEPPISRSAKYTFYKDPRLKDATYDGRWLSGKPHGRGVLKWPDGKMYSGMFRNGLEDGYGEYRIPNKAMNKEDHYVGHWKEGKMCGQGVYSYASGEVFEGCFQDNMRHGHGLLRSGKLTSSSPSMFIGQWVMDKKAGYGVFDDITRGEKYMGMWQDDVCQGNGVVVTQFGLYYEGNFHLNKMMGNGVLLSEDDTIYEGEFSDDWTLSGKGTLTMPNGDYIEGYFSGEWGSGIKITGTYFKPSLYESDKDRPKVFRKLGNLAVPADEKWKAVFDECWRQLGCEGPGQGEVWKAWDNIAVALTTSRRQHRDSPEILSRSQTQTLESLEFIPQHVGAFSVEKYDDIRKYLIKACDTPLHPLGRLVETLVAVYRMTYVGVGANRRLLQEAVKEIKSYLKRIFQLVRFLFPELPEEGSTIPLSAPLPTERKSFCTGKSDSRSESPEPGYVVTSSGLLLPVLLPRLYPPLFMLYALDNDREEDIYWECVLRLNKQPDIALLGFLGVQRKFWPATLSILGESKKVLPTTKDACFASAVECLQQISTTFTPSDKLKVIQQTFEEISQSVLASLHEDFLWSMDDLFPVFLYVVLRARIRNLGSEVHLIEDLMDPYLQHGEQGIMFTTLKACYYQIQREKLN
UniProt Q9Y673: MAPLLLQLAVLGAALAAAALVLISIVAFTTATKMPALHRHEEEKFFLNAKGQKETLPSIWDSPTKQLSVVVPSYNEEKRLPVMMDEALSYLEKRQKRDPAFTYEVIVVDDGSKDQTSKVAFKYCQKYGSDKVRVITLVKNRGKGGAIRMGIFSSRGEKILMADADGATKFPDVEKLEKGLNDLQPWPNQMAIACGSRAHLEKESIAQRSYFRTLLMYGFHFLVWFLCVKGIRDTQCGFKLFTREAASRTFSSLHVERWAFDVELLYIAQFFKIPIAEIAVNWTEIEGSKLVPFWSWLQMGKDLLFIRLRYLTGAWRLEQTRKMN
UniProt P14550: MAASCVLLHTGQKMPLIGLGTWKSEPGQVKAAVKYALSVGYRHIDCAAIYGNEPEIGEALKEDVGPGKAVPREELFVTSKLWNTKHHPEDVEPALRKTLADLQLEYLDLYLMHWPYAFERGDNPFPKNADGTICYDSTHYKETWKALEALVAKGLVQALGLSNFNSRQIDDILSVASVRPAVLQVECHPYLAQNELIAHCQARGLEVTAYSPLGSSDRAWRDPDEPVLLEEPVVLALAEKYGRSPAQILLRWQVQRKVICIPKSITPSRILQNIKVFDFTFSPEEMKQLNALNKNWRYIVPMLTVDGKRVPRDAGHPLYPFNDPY
UniProt Q4VCS5: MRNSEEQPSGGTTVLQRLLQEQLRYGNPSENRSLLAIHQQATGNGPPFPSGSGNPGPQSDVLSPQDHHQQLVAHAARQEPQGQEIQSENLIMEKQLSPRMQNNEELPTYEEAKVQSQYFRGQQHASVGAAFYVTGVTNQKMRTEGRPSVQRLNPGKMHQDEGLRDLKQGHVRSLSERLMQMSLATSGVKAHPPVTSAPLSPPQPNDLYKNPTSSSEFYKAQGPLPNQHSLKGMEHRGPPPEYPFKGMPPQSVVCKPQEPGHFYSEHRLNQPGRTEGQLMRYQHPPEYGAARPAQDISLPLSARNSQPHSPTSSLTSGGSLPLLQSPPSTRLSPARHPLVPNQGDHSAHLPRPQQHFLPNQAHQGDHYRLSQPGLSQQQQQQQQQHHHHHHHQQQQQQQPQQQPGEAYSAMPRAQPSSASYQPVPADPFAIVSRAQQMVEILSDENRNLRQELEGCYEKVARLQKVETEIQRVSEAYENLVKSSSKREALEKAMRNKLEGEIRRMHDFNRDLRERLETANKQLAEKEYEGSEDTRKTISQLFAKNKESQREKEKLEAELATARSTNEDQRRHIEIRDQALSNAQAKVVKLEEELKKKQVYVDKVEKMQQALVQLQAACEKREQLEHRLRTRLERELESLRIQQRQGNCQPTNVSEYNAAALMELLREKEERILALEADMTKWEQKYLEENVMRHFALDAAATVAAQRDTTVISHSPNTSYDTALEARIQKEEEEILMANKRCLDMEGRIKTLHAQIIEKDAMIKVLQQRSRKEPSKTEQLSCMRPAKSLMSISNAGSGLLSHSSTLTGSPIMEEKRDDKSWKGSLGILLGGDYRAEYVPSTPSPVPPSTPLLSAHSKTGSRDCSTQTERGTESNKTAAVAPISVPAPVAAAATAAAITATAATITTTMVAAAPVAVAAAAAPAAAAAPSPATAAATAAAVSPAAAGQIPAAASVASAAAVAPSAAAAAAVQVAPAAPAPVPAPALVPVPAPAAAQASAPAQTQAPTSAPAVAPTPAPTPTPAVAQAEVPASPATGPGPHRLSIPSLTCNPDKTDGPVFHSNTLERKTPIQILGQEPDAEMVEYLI
UniProt O43865, whole entry, looked up: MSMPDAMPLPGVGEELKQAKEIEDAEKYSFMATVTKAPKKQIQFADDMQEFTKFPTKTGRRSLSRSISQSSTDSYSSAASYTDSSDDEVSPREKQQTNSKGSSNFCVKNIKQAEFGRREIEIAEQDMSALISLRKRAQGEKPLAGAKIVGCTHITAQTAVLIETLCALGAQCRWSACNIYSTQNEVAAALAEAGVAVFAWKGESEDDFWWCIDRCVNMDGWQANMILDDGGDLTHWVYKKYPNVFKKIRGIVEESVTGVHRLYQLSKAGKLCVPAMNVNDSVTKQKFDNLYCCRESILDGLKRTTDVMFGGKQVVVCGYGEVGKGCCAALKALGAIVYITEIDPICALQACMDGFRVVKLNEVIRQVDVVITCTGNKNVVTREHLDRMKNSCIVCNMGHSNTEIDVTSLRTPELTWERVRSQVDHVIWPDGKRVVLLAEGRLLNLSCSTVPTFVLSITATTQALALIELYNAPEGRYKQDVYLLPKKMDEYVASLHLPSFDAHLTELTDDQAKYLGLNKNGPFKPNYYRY
UniProt O60488: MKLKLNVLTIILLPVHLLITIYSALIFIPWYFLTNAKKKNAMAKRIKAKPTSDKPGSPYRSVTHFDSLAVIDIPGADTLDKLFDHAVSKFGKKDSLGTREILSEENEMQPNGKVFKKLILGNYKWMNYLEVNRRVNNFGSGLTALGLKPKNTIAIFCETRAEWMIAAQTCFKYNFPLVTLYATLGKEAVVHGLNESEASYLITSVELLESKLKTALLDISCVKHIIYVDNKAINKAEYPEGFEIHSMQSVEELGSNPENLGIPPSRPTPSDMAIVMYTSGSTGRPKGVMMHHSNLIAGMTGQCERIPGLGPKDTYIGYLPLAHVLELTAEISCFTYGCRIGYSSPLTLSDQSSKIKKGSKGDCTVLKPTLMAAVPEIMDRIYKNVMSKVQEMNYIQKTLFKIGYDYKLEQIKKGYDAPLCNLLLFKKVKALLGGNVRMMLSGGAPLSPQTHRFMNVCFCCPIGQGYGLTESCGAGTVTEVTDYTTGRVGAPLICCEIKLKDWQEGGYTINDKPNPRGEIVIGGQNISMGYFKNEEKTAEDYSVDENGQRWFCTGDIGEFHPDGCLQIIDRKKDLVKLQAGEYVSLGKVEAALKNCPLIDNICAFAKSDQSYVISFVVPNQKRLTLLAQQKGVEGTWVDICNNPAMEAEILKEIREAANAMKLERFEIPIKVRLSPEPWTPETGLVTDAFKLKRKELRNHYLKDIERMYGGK

[2] = compound: ClCC(=O)N[C@H]1CCCc2ccccc12; assay: as above; conditions: treatment time: 4 h, cell line lysate: HEK293T
Procedure: as §1

Row | Target | log2 mean competition ratio ([1]; 50 µM) | log2 mean competition ratio ([1]; 200 µM) | log2 mean competition ratio ([2]; 50 µM) | log2 mean competition ratio ([2]; 200 µM)
1 | ANAPC4 C536 (UniProt Q9UJX5) | -0.228 | 0.294 | -0.172 | 0.128
2 | ANKLE2 C203 (UniProt Q86XL3) | 0.0496 | 0.54 | -0.0654 | 0.46
3 | AKT2 C124 (UniProt P31751) | -0.0662 | -0.281 | 0.213 | -0.00528
4 | ALKBH2 C192 (UniProt Q6NS38) | 0.384 | 0.303 | 0.761 | 0.27
5 | AKAP1 C389 (UniProt Q92667) | -0.0759 | -0.107 | 0.157 | -0.0411
6 | AIMP2 C205 (UniProt Q13155) | -0.0429 | -0.415 | -0.292 | -0.513
7 | ANK3 C307 (UniProt Q12955) | 0.299 | -0.0514 | 0.659 | -0.0361
8 | ALDH1L2 C783 (UniProt Q3SY69) | 0.0306 | -0.0559 | -0.144 | -0.0487
9 | ANKHD1 C1965 | 0.0702 | 0.265 | -0.0288 | 0.0898
10 | ADAR C392 (UniProt P55265) | -0.161 | -0.226 | 0.46 | -0.17
11 | ADD3 C286 (UniProt Q9UEY8) | -0.131 | 0.204 | -0.29 | -0.0278
12 | AFAP1 C201 (UniProt Q8N556) | 0.108 | 1.11 | -0.349 | 0.244
13 | AGK C43 (UniProt Q53H12) | -0.00382 | -0.168 | 0.546 | -0.0137
14 | AIDA C69 (UniProt Q96BJ3) | 0.162 | -0.00617 | 0.116 | 0.0498
15 | ACD C380 (UniProt Q96AP0) | 0.24 | 0.299 | 0.446 | 0.411
16 | ADSS2 C18 (UniProt P30520) | -0.275 | -0.0977 | 0.261 | -0.00603
17 | ADSS2 C182 (UniProt P30520) | -0.00701 | 0.1 | 0.125 | 0.28
18 | ACIN1 C733 | -0.234 | -0.209 | -0.34 | -0.269
19 | ALAD C223 (UniProt P13716) | 0.22 | -0.0502 | 0.134 | 0.162
20 | ACTG1 C217 | 0.22 | 0.0356 | 0.64 | -0.13
21 | AGAP1 C417 (UniProt Q9UPQ3) | 0.0231 | 0.175 | -0.307 | -0.0087
22 | AKAP8L C128 (UniProt Q9ULX6) | 0.167 | 0.0846 | -0.0408 | 0.267
23 | AHDC1 C1461 (UniProt Q5TGY3) | 0.00497 | 0.404 | 0.0275 | 0.481
24 | ADO C239 (UniProt Q96SZ5) | -0.108 | -0.271 | 0.329 | -0.0261
25 | ALMS1 C436 (UniProt Q8TCU4) | -0.345 | 0.265 | -0.374 | 0.00965

Row | Target | log2 mean competition ratio ([1]; 50 µM) | log2 mean competition ratio ([1]; 200 µM) | log2 mean competition ratio ([2]; 50 µM) | log2 mean competition ratio ([2]; 200 µM)
26 | ALS2 C916 (UniProt Q96Q42) | -0.022 | 0.0606 | -0.0251 | 0.0106
27 | ADGRL2 C148 | 0.0477 | 0.637 | -0.282 | 0.0204
28 | AMPD2 C123 (UniProt Q01433) | 0.271 | 0.221 | 0.108 | 0.297
29 | AGTPBP1 C305 (UniProt Q9UPW5) | -0.0426 | 0.0203 | 0.226 | 0.00712
30 | ALG5 C236 (UniProt Q9Y673) | -0.0269 | 0.114 | 0.354 | 0.0712
31 | AKAP9 C1144 (UniProt Q99996) | -0.0975 | -0.158 | -0.0657 | -0.102
32 | ALDH6A1 C86 (UniProt Q02252) | -0.167 | 0.0215 | 0.319 | 0.0934
33 | ALDH9A1 C267 (UniProt P49189) | -0.417 | -0.273 | -0.197 | -0.179
34 | AKAP8 C173 (UniProt O43823) | 0.15 | 0.154 | -0.028 | 0.117
35 | ADRM1 C88 (UniProt Q16186) | -0.149 | -0.0344 | -0.24 | -0.113
36 | AKR1A1 C134 (UniProt P14550) | -0.357 | -0.037 | -0.419 | -0.309
37 | AMOT C455 (UniProt Q4VCS5) | -0.334 | 0.153 | -0.541 | 0.0906
38 | AFAP1L1 C547 (UniProt Q8TED9) | -0.148 | -0.0351 | 0.123 | 0.173
39 | ACD C399 (UniProt Q96AP0) | -0.0993 | 0.331 | -0.278 | 0.277
40 | ANAPC7 C475 (UniProt Q9UJX3) | 0.199 | 0.977 | 0.348 | 0.806
41 | ADGRA2 C1147 | 0.133 | -0.104 | -0.0626 | 0.00946
42 | ALDH18A1 C546 (UniProt P54886) | -0.245 | 0.25 | -0.248 | 0.115
43 | AK6 C81 (UniProt Q9Y3D8) | -0.339 | 0.145 | -0.322 | -0.0183
44 | ADAR C909 (UniProt P55265) | -0.25 | 0.0229 | -0.372 | 0.0117
45 | ADAMTS1 C333 | -0.0939 | 0.245 | 0.0414 | 0.111
46 | AKAP1 C438 (UniProt Q92667) | 0.113 | -0.0394 | 0.769 | 0.26
47 | AHCYL1 C106 (UniProt O43865) | -0.146 | -0.483 | 0.281 | -0.274
48 | ACSL4 C157 (UniProt O60488) | -0.34 | -0.365 | -0.193 | -0.4
49 | ADAR C630 (UniProt P55265) | 0.0594 | 0.173 | 0.0812 | 0.17

A different layout for part of the listing above.

| Row | Target | log2 mean competition ratio ([1]; 50 µM) | log2 mean competition ratio ([1]; 200 µM) | log2 mean competition ratio ([2]; 50 µM) | log2 mean competition ratio ([2]; 200 µM) |
| --- | --- | --- | --- | --- | --- |
| 26 | ALS2 C916 (UniProt Q96Q42) | -0.022 | 0.0606 | -0.0251 | 0.0106 |
| 27 | ADGRL2 C148 | 0.0477 | 0.637 | -0.282 | 0.0204 |
| 28 | AMPD2 C123 (UniProt Q01433) | 0.271 | 0.221 | 0.108 | 0.297 |

Reference: the supplement of paper PMC11732987, “Enantioselective OTUD7B fragment discovery through chemoproteomics screening and high-throughput optimisation” (Communications Chemistry, 2025)
